Data on two compounds can be found in PMC12073159, “Inhibition Mechanism of Mulberry Prenylated Flavonoids Sanggenone D/Kuwanon G Against α-Glucosidase and the Regulation of Glucose via GLUT4 Pathway” (Nutrients, 2025).

Data set [1] deals with α-glucosidase. Put plainly: Fluorescence quenching spectroscopy (Stern–Volmer). The data set is classed as binding. The protocol: A total of 100 μL of 1 U/mL α-glucosidase extract was mixed with […] of different concentrations (sanggenone D: 0, 1, 5, 10, 20, 50, 60 μg/mL; kuwanon G: 0, 1, 5, 10, 20, 40, 60 μg/mL) and incubated at three temperatures of 298 K, 304 K, and 310 K for 5 min. Then, the mixture were scanned with fluorescence spectroscopy (SpectraMax i3x, Molecular Devices, LLC., San Jose, CA, USA). The excitation wavelength was set at 280 nm, the emission wavelength was 300–500 nm, and the widths of both excitation and emission slits were 5 nm. The fluorescence quenching parameters were calculated according to the following equations.
Stern–Volmer dynamic collision quenching equation:(5) F0/F=1+KSVQ=1+Kqτ0Q (6) lgF0−F/F=lgKa+nlg[Q]
F0 and F represent the fluorescence intensity peaks of α-glucosidase without and with the compound, respectively; [Q] is the sample concentration; and τ0 is the protein’s average lifetime (10^−8 s).

Data set [2] deals with α-glucosidase. Put plainly: FT-IR measurement of secondary conformation (amide I band). To be noted: kuwanon G 100 μg/mL, sanggenone D 150 μg/mL; for β-antiparallel content of the α-glucosidase complex: free enzyme 9.53%; for β-sheet content of the α-glucosidase complex: free enzyme 20.96%; for α-helix content of the α-glucosidase complex: free enzyme 26.32%; for Peak position of the amide I band after adding compound: free enzyme 1656 cm^−1.

Take `CC(C)=CCc1c(-c2ccc(O)cc2O)oc2c([C@H]3C=C(C)C[C@@H](c4ccc(O)cc4O)[C@@H]3C(=O)c3ccc(O)cc3O)c(O)cc(O)c2c1=O` [kuwanon G]: the “Quenching type of α-glucosidase fluorescence” value in data set [1] is on record as “static quenching type”. Moreover, in data set [1] (298 K), the “n (number of binding sites)” value is 0.96. Further, in data set [1] (304 K), the “n (number of binding sites)” value amounted to 1.15. In data set [1] (310 K), the “n (number of binding sites)” value worked out at 1.43. In data set [2], the “β-antiparallel content of the α-glucosidase complex” value amounted to 2.17%, the “β-sheet content of the α-glucosidase complex” value is 36.82%, the “α-helix content of the α-glucosidase complex” value amounted to 19.46% and the “Peak position of the amide I band after adding compound” value is 1637 cm⁻¹.

Take `CC(C)=CCC12Oc3cc(O)ccc3C1(O)Oc1cc(O)c(C3C=C(C)CC(c4ccc(O)cc4O)C3C(=O)c3ccc(O)cc3O)c(O)c1C2=O` (stereo not shown) [sanggenone D]: the “Quenching type of α-glucosidase fluorescence” value in data set [1] is recorded as “static quenching type”. In addition, the “n (number of binding sites)” value in data set [1] (298 K) amounted to 0.81. Moreover, the “n (number of binding sites)” value in data set [1] (304 K) came to 0.93. The “n (number of binding sites)” value in data set [1] (310 K) is on record as 1.22. Moreover, in data set [2], the “β-antiparallel content of the α-glucosidase complex” value is listed as 2.67%, the “β-sheet content of the α-glucosidase complex” value stood at 39.16%, the “α-helix content of the α-glucosidase complex” value turned out to be 15.20% and the “Peak position of the amide I band after adding compound” value was 1639 cm⁻¹.
